This assay concerns P388 leukemia ip, CD2F1 mice, survival T/C. As to the kind of experiment: NCI In Vivo Anticancer Drug Screen. Data for tumor model P388 Leukemia (intraperitoneal) in CD2F1 (CDF1) mice. As to conditions: T/C endpoint: median survival time, higher T/C = longer survival.
[1] abbreviates: dose: 200.0 mg/kg/injection, schedule: Q01DX009 (ip), vehicle: saline with Tween-80.
Where [2] appears, read: dose: 240.0 mg/kg/injection, schedule: Q01DX005 (ip), vehicle: saline with Tween-80.
[3] abbreviates: dose: 100.0 mg/kg/injection, schedule: Q01DX009 (ip), vehicle: saline.
[4] abbreviates: dose: 25.0 mg/kg/injection, schedule: Q01DX009 (ip), vehicle: saline.
The mark [5] stands for this setting: dose: 50.0 mg/kg/injection, schedule: Q01DX009 (ip), vehicle: saline.
Setting [6] is: dose: 200.0 mg/kg/injection, schedule: Q01DX009 (ip), vehicle: saline.
[7] abbreviates: dose: 100.0 mg/kg/injection, schedule: Q01DX005 (ip), vehicle: saline with Tween-80.
[8] abbreviates: dose: 100.0 mg/kg/injection, schedule: Q01DX009 (ip), vehicle: saline with Tween-80.
[9] abbreviates: dose: 240.0 mg/kg/injection, schedule: Q01DX005 (ip), vehicle: Klucel (hydroxypropylcellulose) (HPC).
Setting [10] is: dose: 200.0 mg/kg/injection, schedule: Q01DX005 (ip), vehicle: saline with Tween-80.
The mark [11] stands for this setting: dose: 240.0 mg/kg/injection, schedule: Q01DX005 (ip), vehicle: saline.
The mark [12] stands for this setting: dose: 400.0 mg/kg/injection, schedule: Q01DX009 (ip), vehicle: saline with Tween-80.

The source of these data is PubChem BioAssay AID330 (DTP/NCI, 2004).

The list shows only some results of the screen, not a fair sample: it is rich in T/C values a quarter to a half above the control, in often repeated tests (any T/C) and in doses without a T/C. Further doses and runs are listed elsewhere. T/C: endpoint of the treated group in % of that of the vehicle group. Some entries give survivors of the animals treated and no T/C: the source files T/C as zero there, which appears to mark a toxic dose or a test without result, not a measured value. Some doses without a T/C left all or most animals alive at the check, yet need not have been tolerated: the source hardly ever lists a survival T/C far under the control, and the zero likely stands for such cases as well. Counts of survivors are from the toxicity check (mostly the fifth day) where no day follows; animals may have died later. Schedule codes are those of the source, read here as Q, the interval in days (D) or hours (H), X, the number of doses. Some entries hold several experiments; the values are given in rising order. Where survival is the endpoint, the PubChem record calls one and a half times the control and up active, and a quarter to a half above the control has no call in these data; cut-offs in other NCI protocols can differ. Some T/C values carry the count of animals alive at the toxicity check (mostly the fifth day); without a count, all were alive then. Marks such as (2×) say how often a value occurs here.

Turning to `CCCCCOC(=O)c1ccc(O)cc1`, under setting [1], the survivor count is given as 2 of 6.

As to `CC(C)(C)N1COC2CCCCC21` (stereo not drawn), the survivor count (dose: 120.0 mg/kg/injection, schedule: Q01DX005 (ip), vehicle: Klucel (hydroxypropylcellulose) (HPC)) was 4 of 6.

Take `CN(C)C(=S)SCc1ccc(C(=O)O)nc1`: the survivor count under setting [1] is given as 3 of 6.

With `COC(=O)N1N=C(c2ccccc2)C(C(=O)OC)(C(=O)OC)c2ccccc21`, the survivor count under setting [2] is 6 of 6.

Take `CC(=O)NC1CC(C)(C)NC(C)(C)C1`: the survivor count under setting [3] is 6 of 6.

As for `CC(=O)OC(C[Se]c1ccccc1)OC(C)=O`, the survivor count by setting is: (dose: 150.0 mg/kg/injection, schedule: Q01DX001 (ip), vehicle: saline with Tween-80) 1 of 6 and 2 of 6; (dose: 300.0 mg/kg/injection, schedule: Q01DX001 (ip), vehicle: saline with Tween-80) 2 of 6.

As to `O=S1(=O)CS/C(=N\C(=S)N(c2ccccc2)c2ccccc2)N1c1ccccc1`, the survivor count (dose: 25.0 mg/kg/injection, schedule: Q04DX003 (ip), vehicle: saline with Tween-80) is 6 of 6; the survivor count (dose: 50.0 mg/kg/injection, schedule: Q04DX003 (ip), vehicle: saline with Tween-80) was 6 of 6; the survivor count (dose: 100.0 mg/kg/injection, schedule: Q04DX003 (ip), vehicle: saline with Tween-80) is recorded as 6 of 6.

Turning to `COc1ccc(C(C#N)N2CCOCC2)cc1` (stereo not drawn), the T/C is 100 (2×) and 106 % of control under setting [4]; 97, 106, 125 % of control under setting [5]; 89, 91, 104, 111 % of control under setting [3]; 95, 96, 97, 114 % of control under setting [6]. Besides, the survivor count was 3 of 6 under setting [4] and 6 of 6 under setting [5].

Consider `CCOC(=O)c1cccc([N+](=O)[O-])c1C(=O)OCCN(CC)CC`, for which the T/C (dose: 400.0 mg/kg/injection, schedule: Q04DX002 (ip), vehicle: saline with Tween-80) is 137 % of control.

For `COc1ccc(CNC(=O)C#CCOC2CCCCO2)cc1` (stereo not drawn), the survivor count is given as 6 of 6 (dose: 50.0 mg/kg/injection, schedule: Q01DX005 (ip), vehicle: saline with Tween-80) and 6 of 6 under setting [7].

With `C/C=C/CC1(CC)C(=O)NC(=S)NC1=O`, the survivor count runs as follows: under setting [8], 3 of 6; under setting [1], 3 of 6.

Consider `O=C(NC(C(=O)O)C1CC(Cl)=NO1)OCC1c2ccccc2-c2ccccc21` (stereo not drawn), for which the T/C (dose: 50.0 mg/kg/injection, schedule: Q04DX003 (ip), vehicle: other) was 126 and 138 % of control; the T/C (dose: 100.0 mg/kg/injection, schedule: Q04DX003 (ip), vehicle: other) is 129 % of control; the T/C (dose: 200.0 mg/kg/injection, schedule: Q04DX003 (ip), vehicle: other) was 129 % of control.

Consider `O=C1CCCCCCCNC(=O)CCCCCCC(=O)NCCCCCCCC(=O)NCCCCCCCCN1`, for which the survivor count (dose: 100.0 mg/kg/injection, schedule: Q01DX001 (ip), vehicle: Klucel (hydroxypropylcellulose) (HPC)) is reported as 6 of 6.

In the case of `Clc1cc2nc3[nH]c4ccccc4c3nc2cc1Cl`, the survivor count under setting [9] is given as 5 of 6.

Take `COCC1CCCN1` (stereo not drawn): the survivor count (dose: 400.0 mg/kg/injection, schedule: Q04DX002 (ip), vehicle: saline) was 1 of 6.

As for `CC(C)NC(=O)OCc1c(COC(=O)NC(C)C)c2n(c1-c1ccc(Cl)c(Cl)c1)CCS2(=O)=O`, the survivor count is, setting by setting: under setting [10], 6 of 6; (dose: 400.0 mg/kg/injection, schedule: Q01DX005 (ip), vehicle: saline with Tween-80) 6 of 6.

As for `CC(C)=NNC1=NC(C)(C)P(=O)(NNc2ncccn2)S1` (stereo not drawn), the survivor count runs as follows: (dose: 120.0 mg/kg/injection, schedule: Q01DX005 (ip), vehicle: saline) 0 of 6; under setting [11], 0 of 6.

With `CC1(C)CN=C(NN=C(/C=C/c2ccc(C(F)(F)F)cc2)/C=C/c2ccc(C(F)(F)F)cc2)NC1`, under setting [9], the survivor count is given as 5 of 6.

For the molecule `CC(C)N(/C=C/C(=O)c1ccccc1)C(C)C`, the survivor count runs as follows: under setting [8], 5 of 6; under setting [1], 6 of 6.

On to `CC1=CC(C)(C)Nc2ccc(Cc3ccc4c(c3)C(C)=CC(C)(C)N4)cc21`, for which the T/C (dose: 1920.0 mg/kg/injection, schedule: Q01DX001 (ip), vehicle: olive oil, sesame oil, peanut oil, evaluated on day 5) is 123 and 135 % of control; the T/C (dose: 1920.0 mg/kg/injection, schedule: Q01DX001 (ip), vehicle: olive oil, sesame oil, peanut oil, evaluated on day 10) is 104 [8 of 9 alive] and 109 % of control; the T/C (dose: 2400.0 mg/kg/injection, schedule: Q01DX001 (ip), vehicle: olive oil, sesame oil, peanut oil, evaluated on day 5) is 131 and 133 % of control; the T/C (dose: 2400.0 mg/kg/injection, schedule: Q01DX001 (ip), vehicle: olive oil, sesame oil, peanut oil, evaluated on day 10) is 105 [8 of 9 alive] and 112 % of control; the T/C (dose: 3000.0 mg/kg/injection, schedule: Q01DX001 (ip), vehicle: olive oil, sesame oil, peanut oil, evaluated on day 5) was 63 [4 of 7 alive] and 136 % of control; the T/C (dose: 3000.0 mg/kg/injection, schedule: Q01DX001 (ip), vehicle: olive oil, sesame oil, peanut oil, evaluated on day 10) is 95 [2 of 4 alive] and 113 % of control. Where the note is “dose: 3000.0 mg/kg/injection, schedule: Q10HX001 (ip), vehicle: olive oil, sesame oil, peanut oil”, the T/C was 131 % of control [4 of 7 alive].

`CCOC(OCC)c1c(Cl)cccc1Cl`: the survivor count (dose: 264.0 mg/kg/injection, schedule: Q01DX009 (ip), vehicle: saline with Tween-80) is recorded as 3 of 6; the survivor count under setting [12] is recorded as 2 of 6; the survivor count (dose: 600.0 mg/kg/injection, schedule: Q01DX009 (ip), vehicle: saline with Tween-80) is reported as 1 of 6. Besides, under setting [12], the T/C was 127 % of control [5 of 6 alive].

With `CC(=O)Nc1ccc(SSc2ccc(NC(C)=O)c3cccnc23)c2ncccc12`, the survivor count by setting is: (dose: 6.25 mg/kg/injection, schedule: Q01DX005 (ip), vehicle: saline with Tween-80) 5 of 5; under setting [7], 5 of 5; under setting [10], 3 of 5.

Regarding `CCC(=O)Oc1ccc(/C=N/NC(N)=S)nc1`, the T/C by setting is: (dose: 12.5 mg/kg/injection, schedule: Q01DX009 (ip), vehicle: saline) 132 % of control; under setting [4], 148 % of control; under setting [3], 141, 150, 196, 197 % of control. Besides, the survivor count is, setting by setting: under setting [6], 6 of 6; (dose: 400.0 mg/kg/injection, schedule: Q01DX009 (ip), vehicle: saline) 5 of 6 and 6 of 6.

For the molecule `NC(=O)C1(Br)C=[N+](Cc2ccccc2)CCC1` (stereo not drawn), the survivor count under setting [11] was 0 of 6.

With `C(=N\Nc1ccccn1)/c1ccccn1.C(=N\Nc1ccccn1)/c1ccccn1.[Cl-].[Fe+3]`, the survivor count (dose: 400.0 mg/kg/injection, schedule: Q01DX001 (ip), vehicle: saline with Tween-80) is 0 of 6.

`Cc1cc(C=C2C(=O)NC(=O)NC2=O)cc(C)c1O`: the survivor count under setting [10] is 3 of 5.

`Cc1noc(NC(=O)Nc2ccccc2F)c1C#N`: under setting [10], the survivor count was 5 of 5.

As for `CCCCCCCCCc1cccc(N2C(N)=NC(N)=NC2(C)C)c1`, the survivor count reads like this: (dose: 15.0 mg/kg/injection, schedule: Q01DX005 (ip), vehicle: saline with Tween-80) 3 of 6; (dose: 30.0 mg/kg/injection, schedule: Q01DX005 (ip), vehicle: saline with Tween-80) 3 of 6; (dose: 60.0 mg/kg/injection, schedule: Q01DX005 (ip), vehicle: saline with Tween-80) 3 of 6; (dose: 120.0 mg/kg/injection, schedule: Q01DX005 (ip), vehicle: saline with Tween-80) 0 of 6; under setting [2], 0 of 6.

For the molecule `O=C1C=C(O)C2CCCCC2N1` (stereo not drawn), the survivor count (dose: 200.0 mg/kg/injection, schedule: Q01DX005 (ip), vehicle: Klucel (hydroxypropylcellulose) (HPC)) was 0 of 6.
